Patent publication US7196061B2, “Compounds that modulate neuronal growth and their uses” (priority 2003, dated 2007)
For some of these results: At least one structure is not confirmed: it was looked up by name or label, or the drawing left a doubt. Some entries share one result that the patent states for a list of compounds.

Tests used:
cerebellar neurons [1] = assay type: cell-based, rat; details: K252a 100 nM, KT5720 200 nM, H-89 400 nM, Wortmannin and LY294002 10 μM; for effect on the neurite outgrowth response to BAG: BAG 6 μM; for effect on the neurite outgrowth response to BDNF: BDNF 5 ng/ml; for effect on the neurite outgrowth response to FGF2: FGF2 5 ng/ml
Description: To test the effects of various agents, the experiments were done as indicated in the figure using control media containing no additional supplements, or using media additionally supplement with K252a (100 nM final concentration), a PKA inhibitor (KT5720 at 200 nM final concentration or H-89 at 400 nM final concentration), or a PI3K inhibitor (Wortmannin or Ly294002, each at a final concentration of 10 μM). […] Each column in the figure indicates pooled results from at least three independent experiments, and the bars on each column indicate the SEM.
Reagents and culture treatment. Unless otherwise noted here, reagents in the experiments set forth in this Section were obtained and as set forth supra, in Section 7.1.3 et seq. In particular, recombinant human FGF2 and BDNF were obtained from R&D systems (Minneapolis, Minn.) and used at final concentrations of 5 ng/ml. The Trk receptor […] K252a was obtained from Calbiochem (San Diego, Calif.) and used at a final concentration of 100 nM. The Trk agonist peptide BAG (SEQ ID NO:18) was obtained from a commercial supplier (Multiple Peptide Systems, San Diego Calif.). […] A p75 NTR rabbit polyclonal antibody was raised against the extracellular domain of that receptor as previously described (see, Huber & Chao, Dev. Biol. 1995, 167:227–238) and used at a 1:200 dilution of serum. The known PKA inhibitors KT5720 and H-89 were obtained from Calbiochem (San Diego, Calif.) and used at final concentrations of 200 and 400 nM, respectively.

cerebellar neurons [2] = assay: Neurite outgrowth assay, cerebellar neurons over 3T3 monolayers (stimulation / basal outgrowth); assay type: cell-based, rat; details: 18 hours over 3T3 monolayers; BAG 6 μM, BDNF 5 ng/ml, FGF2 5 ng/ml
Description: After 16 hours, the co-cultures were fixed and mean neurite length determined as has been previously described (Williams et al., J. Biol. Chem. 2000, 275:4007–4012).

| Molecule | effect on the neurite outgrowth response to BAG (cerebellar neurons [1]) | effect on the neurite outgrowth response to BDNF (cerebellar neurons [1]) | effect on the neurite outgrowth response to FGF2 (cerebellar neurons [1]) | enhancement of neurite length compared to the control culture (cerebellar neurons [2]) |
| --- | --- | --- | --- | --- |
| O=c1cc(N2CCOCC2)oc2c(-c3ccccc3)cccc12 [LY294002] | essentially abolished | essentially abolished | unaffected | – |
| COC[C@H]1OC(=O)c2coc3c2[C@@]1(C)C1=C(C3=O)[C@@H]2CCC(=O)[C@@]2(C)C[C@H]1OC(C)=O [Worthmannin, Wortmannin] | essentially abolished | essentially abolished | unaffected | – |
| Ac-CSRRGELAASRRGELC-NH2 (cysteine pairing not given here) [BAG] | – | – | – | 60–70% |
